Measurements reported in PubChem BioAssay AID1159617 (Peter MacCallum Cancer Centre, 2016).
Here is one part, drawn at random, of 153 reagents tested. 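Values are robust z-scores scaled across the full screen; higher values mean larger or longer cells.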 No sequences are given here. Not stated in the record: the time to read-out.

Aim: 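Follow-up of migration screen hits for effects on endothelial cell form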 (tertiary re-screen of migration hits)
Cell system: human HMBEC blood microvascular and HDLEC lymphatic endothelial cells
Reagent: siRNA pool against human genes, 40 nM
Read-out: 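Automated imaging of phalloidin actin stain giving per-cell area and length; replicate means turned into robust z-scores relative to all screened samples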
Scale: cell area z-score, HMBEC and cell area z-score, HDLEC: higher = larger cells; cell length z-score, HMBEC and cell length z-score, HDLEC: higher = longer cells

| gene knocked down | cell area z-score, HMBEC | cell area z-score, HDLEC | cell length z-score, HMBEC | cell length z-score, HDLEC |
| --- | --- | --- | --- | --- |
| APBA3 | -0.57 | -0.7 | -0.93 | -0.74 |
| S1PR1 | 1.83 | 1.89 | 3.05 | 2.79 |
| FCRL2 | -1.52 | -1.14 | -1.49 | -1.05 |
| NXF1 | -0.37 | 0.37 | 0.45 | 0.98 |
| GDF3 | -0.22 | -1.5 | -0.6 | -1.54 |
| NFKBIZ | -0.76 | -0.73 | -0.74 | -0.53 |
| PLB1 | 1.03 | 1.4 | 1.34 | 1.03 |
| PLCG1 | -0.05 | -1.05 | -0.26 | -0.94 |
| TYRO3 | 0.33 | -0.25 | 0.15 | -0.65 |
| PMVK | 5.95 | 0.81 | 2.27 | 0.39 |
| TMEM132E | 0.55 | -0.8 | 0.09 | -0.71 |
| ELP2 | -0.3 | -0.62 | -0.35 | -0.97 |
| GCK | -1.46 | -1.02 | -1.54 | -0.7 |
| TES | 2.06 | -0.03 | 2.1 | -0.2 |
| TUBA1B | -0.44 | 0.59 | -0.68 | -0.26 |
| RTL8C | -0.33 | 0.01 | -0.25 | 0.07 |
| PDGFRB | 0.85 | -0.42 | 0.89 | -0.38 |
| PLPP1 | -1.22 | -1.59 | -1.24 | -1.23 |
| ATRAID | -0.34 | 1.38 | -0.27 | 1.33 |
| AXL | -0.96 | -0.8 | -1.28 | -1.28 |
| FLG2 | 1.79 | 1.98 | 2.3 | 1.98 |
| SEPTIN4 | 0.75 | -0.33 | 0.57 | -0.26 |
| CRABP2 | -0.99 | -0.35 | -0.98 | -0.08 |
| SYNGAP1 | -1.29 | -1.73 | -1.25 | -1.74 |
| ISL2 | 0.14 | -0.45 | 0.07 | -0.99 |
| EPOR | 2.03 | 1.31 | 2.21 | 1.02 |
| ATM | -1.3 | -0.03 | -1.28 | 0.06 |
| SCN1B | 0.48 | 1.57 | 0.05 | 1.62 |
| CHST5 | 0.82 | 1.4 | 0.37 | 1.61 |
| ZNF76 | -0.31 | 0.1 | -0.09 | 0.7 |
| COPB2 | 0.81 | -0.1 | 1.2 | -0.04 |
| HS3ST1 | -0.12 | -0.91 | 0.16 | -1.09 |
| SLC31A2 | 0.39 | 0.93 | -0.03 | 1.2 |
| DBP | -0.16 | 0.35 | -0.68 | 0.17 |
| TNFRSF1B | -0.02 | 1.55 | 0.29 | 0.76 |
| RTKN | 0.03 | 0.07 | -0.06 | 0.5 |
| AKT3 | 0.4 | -0.15 | 0.37 | -0.6 |
| PKN2 | -0.35 | -0.01 | -0.08 | -0.15 |
| MIEF1 | -0.08 | -0.33 | -0.1 | -0.11 |
| LYPLA2 | -2.22 | -2.23 | -2.57 | -2.13 |
| CBR1 | 0.77 | -0.48 | 0.84 | -0.59 |
| PLPPR2 | 0.23 | 0.73 | 0.52 | 1.23 |
| MPP3 | 0.83 | 1.57 | 1.22 | 0.84 |
| STK36 | -0.41 | 0.86 | 0.24 | 1.02 |
| NDUFA7 | -1.31 | -1.33 | -1.52 | -1.15 |
| LRRC57 | -0.65 | 0.56 | -0.38 | 0.09 |
| PRKG2 | -1.06 | -0.83 | -0.67 | -0.89 |
| ITFG2 | 0.06 | 0.92 | -0.18 | 0.61 |
| STK38 | 0.43 | -0.09 | 1.26 | 0.02 |
| UGT1A7 | 2.79 | 4.05 | 2.12 | 3.25 |
| NFATC4 | -1.07 | -0.53 | -0.59 | 0.06 |
| SLC26A11 | -1.13 | -1.29 | -0.81 | -0.69 |
| KANSL1 | 1.2 | 1.43 | 1.09 | 0.31 |
| CALM2 | 0.63 | -0.68 | 0.57 | -0.64 |
| KATNIP | -0.76 | -1.21 | -0.84 | -1.24 |
| ABCA2 | 0.7 | 0.38 | 0.43 | 0.22 |
| PRKD3 | -0.97 | -1.29 | -1.07 | -1.63 |
| HOXC5 | 1.16 | 1.5 | 0.88 | 1.38 |
| SMURF2 | 1.1 | 1.21 | 1.26 | 1.75 |
| IL1B | 1.09 | -0.12 | 1.03 | -0.15 |
| SGK3 | 1.79 | -0.74 | 2.19 | -0.65 |
| KCNQ2 | -1.08 | -0.08 | -1.3 | -0.39 |
| UBE2O | 0.03 | -1.34 | 0.33 | -1.43 |
| RAD21 | -0.3 | -0.65 | -0.57 | -0.74 |
| BNIP1 | 0.09 | -0.24 | -0.24 | -0.34 |
